Residue numbers refer to the chain shown, from its start. Results are given in words; binding and its absence hold for the method and conditions named. In cells and extracts the contact can be indirect. Some entries that bind do so weakly or less than the wild type. For part of these data: Where a sequence is shown, tags or fusion partners need not be part of it.
Assays:
[1] = molecular target: T1, DDIAS-pT775 peptide, biotinylated (human); test: pull-down
T1 sequence (peptide, biotin on the N terminus; phosphothreonine at Thr775 ([pThr])): SGSGSQDFVPCSQSTPIS

[2] = molecular target: T2, Halo-tagged DDIAS, wild type (human) (UniProt Q8IXT1); test: co-IP
T2 sequence: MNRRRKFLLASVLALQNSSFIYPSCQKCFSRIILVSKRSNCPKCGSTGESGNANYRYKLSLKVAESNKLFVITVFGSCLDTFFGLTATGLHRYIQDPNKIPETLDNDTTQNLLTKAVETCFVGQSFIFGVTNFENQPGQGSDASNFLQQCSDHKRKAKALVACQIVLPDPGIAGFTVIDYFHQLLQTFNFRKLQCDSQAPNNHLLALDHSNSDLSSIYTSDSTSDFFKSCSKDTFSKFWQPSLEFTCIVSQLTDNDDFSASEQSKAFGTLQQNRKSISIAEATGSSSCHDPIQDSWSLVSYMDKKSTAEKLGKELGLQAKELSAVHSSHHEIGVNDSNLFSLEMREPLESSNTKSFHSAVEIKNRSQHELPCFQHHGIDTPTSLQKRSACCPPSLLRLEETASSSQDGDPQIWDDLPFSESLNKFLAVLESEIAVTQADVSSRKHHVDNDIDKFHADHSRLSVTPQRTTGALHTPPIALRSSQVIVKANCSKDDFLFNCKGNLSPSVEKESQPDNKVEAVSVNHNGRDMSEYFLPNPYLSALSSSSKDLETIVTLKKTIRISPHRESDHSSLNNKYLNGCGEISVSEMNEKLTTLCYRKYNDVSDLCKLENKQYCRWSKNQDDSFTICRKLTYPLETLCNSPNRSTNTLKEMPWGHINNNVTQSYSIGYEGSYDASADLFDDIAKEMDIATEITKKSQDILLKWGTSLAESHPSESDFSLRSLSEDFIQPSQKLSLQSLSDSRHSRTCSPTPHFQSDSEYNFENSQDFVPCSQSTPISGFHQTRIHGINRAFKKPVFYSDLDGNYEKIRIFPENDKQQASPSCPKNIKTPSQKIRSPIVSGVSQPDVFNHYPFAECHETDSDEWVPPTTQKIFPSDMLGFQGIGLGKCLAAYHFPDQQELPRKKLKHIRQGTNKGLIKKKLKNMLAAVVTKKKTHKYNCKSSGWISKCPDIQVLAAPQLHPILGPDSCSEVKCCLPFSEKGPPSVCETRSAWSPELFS

Halo-DDIAS T775A (human) = molecular target: T3, Halo-DDIAS T775A (human) (UniProt Q8IXT1); test: co-IP
T3 sequence: T2 sequence with T775A

binding [1]: binds | binding [2]: binds | binding (Halo-DDIAS T775A (human)): binds weakly
Substance: PLK1, endogenous in 293FT cells (from UniProt P53350 1-603) (enzyme)
